Reference: PubChem BioAssay AID602313 (National Center for Advancing Translational Sciences (NCATS), 2012)
About 760 (0.19%) of roughly 390,000 compounds were called active. Inconclusive results, whose numbers are uncertain, are shown with a selection of clear calls. Calls follow the shape of the dose curve; as a rule, active = well fitted inhibition curve with a large enough effect; inconclusive = small, poorly fitted or top-dose-only effect; inactive = flat fitted curve, though single readings scatter. A potency beside an inconclusive call is a rough fit, not a confirmed value.

Test: qHTS for Inhibitors of Vif-A3F Interactions: qHTS; also: nearly all actives have a fitted effect of over 65% in size
Conditions: HeLa A3F-eYFP + Vif (tagged APOBEC3F with the HIV-1 protein that degrades it), YFP fluorescence increase; series mostly up to 46.1 µM
Summary of the method: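 HeLa cells stably expressing A3F-eYFP plus Vif, plated and incubated overnight at 37 deg C, then exposed to compounds overnight at 37 deg C. Blocked degradation read as raised yellow fluorescence (Ex 488/Em 500-530).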
Potency is read from the fitted curve at half-maximal effect.

SMILES | Potency
NC(=O)c1sc2nc3c(c(-c4ccco4)c2c1N)CCC3 | inactive
CC(=O)NC(=S)Nc1ccccc1N1CCCCC1 | inconclusive: 35.5 µM [inhibitor, single point]
CN(C)CCCN(C(=O)c1ccc(S(=O)(=O)N2CCOCC2)cc1)c1nc2cc3c(cc2s1)OCO3 | inactive
COc1ccc(NC(=S)N2CCC(NC(=O)C3CCCCC3)CC2)cc1 | inconclusive: 25.1 µM [inhibitor, single point]
Clc1ccc2nc3c4ccccc4cnn3c2c1 | inactive
CCc1ccc(Nc2n[n+](-c3ccccc3)c(-c3ccc(N(CC)CC)cc3)s2)cc1 | inconclusive: 20 µM [inhibitor, partial curve, poor fit]
O=C(CCSCc1cccc(Cl)c1)NCc1ccc(F)cc1Cl | inactive
CCN1C(=O)c2cccc3c(S(=O)(=O)Nc4ccccc4)ccc1c23 | inactive
Cc1ccc(S(=O)(=O)N2CCOCC2)cc1C(=O)OCC(=O)NC1CCCCC1 | inconclusive: 3.55 µM [inhibitor, single point]
CCCCCCN1C[C@H](O)[C@@H](n2cc(COC(=O)c3ccccc3)nn2)C[C@@H]1c1ccc(C)cc1 | inconclusive: 11.2 µM [inhibitor, partial curve]
C=CCn1c(SCC(=O)c2[nH]c(C)c(C(=O)OCC)c2C)nc2scc(-c3ccc(OC)c(OC)c3)c2c1=O | inconclusive: 14.1 µM [inhibitor, partial curve, poor fit]
O=C(O)c1ccc(N/N=C/c2cc3cc4c(cc3nc2Cl)OCCO4)cc1 | inconclusive: 20 µM [inhibitor, partial curve, poor fit]
O=C1NN(c2ccc(Cl)cc2)C(=O)/C1=C\c1ccc(-c2cccc(C(=O)O)c2)o1 | inactive
Cc1cc(C)nc(SCC(=O)Nc2ncc(C(F)(F)F)cc2Cl)n1 | inactive
O=C(NC1(O)C(=O)c2ccccc2C1=O)c1c(Cl)cccc1Cl | inactive
O=C(N/C(=C\c1cccc([N+](=O)[O-])c1)C(=O)N1CCOCC1)c1ccco1 | inconclusive: 12.6 µM [inhibitor, single point]
c1ccc2c(c1)Cc1cc3ccccc3nc1-2 | active: 10 µM
O=C(O)c1cccc(Nc2nc(-c3cc4ccccc4oc3=O)cs2)c1 | inconclusive: 0.316 µM [inhibitor, full curve, poor fit]
COc1ccccc1C(=O)COC(=O)c1cc(S(=O)(=O)N2CCCCC2)ccc1N1CCOCC1 | inconclusive: 3.98 µM [inhibitor, partial curve, poor fit]
O=C(CSc1nc2ccc(Nc3nc(N4CCOCC4)nc(N4CCOCC4)n3)cc2s1)Nc1ccccc1F | inconclusive: 5.62 µM [inhibitor, full curve, poor fit]
CC(=O)CSc1nnc(-c2cnccn2)n1-c1ccccc1 | inconclusive: 3.16 µM [inhibitor, single point]
C=CC(=O)N1C/C(=C/c2ccc(F)cc2)C(=O)/C(=C\c2ccc(F)cc2)C1 | inconclusive: 0.562 µM [inhibitor, partial curve, poor fit]

Arranged by SMILES length (high to low): some entries from above
SMILES | Potency
COc1ccccc1C(=O)COC(=O)c1cc(S(=O)(=O)N2CCCCC2)ccc1N1CCOCC1 | inconclusive: 3.98 µM [inhibitor, partial curve, poor fit]
CCN1C(=O)c2cccc3c(S(=O)(=O)Nc4ccccc4)ccc1c23 | inactive
CC(=O)CSc1nnc(-c2cnccn2)n1-c1ccccc1 | inconclusive: 3.16 µM [inhibitor, single point]
c1ccc2c(c1)Cc1cc3ccccc3nc1-2 | active: 10 µM

The list continues.

SMILES | Potency
CN1C/C(=C/c2ccncc2)C(=O)/C(=C/c2ccncc2)C1 | inconclusive: 35.5 µM [inhibitor, single point]
COc1ccc2sc(-c3ccc(N(C)C)cc3)c(C#CCO)c2c1 | inconclusive: 35.5 µM [inhibitor, single point]
O=C(CN1C(=O)C(=O)N(Cc2ccco2)C1=O)c1c[nH]c2ccccc12 | inactive
COc1ccc(CNC(=O)Cn2cncn2)cc1OC | inconclusive: 3.98 µM [inhibitor, partial curve, poor fit]
Cc1cc(=O)oc2cc(NC(=O)c3ccccc3OC(F)F)ccc12 | inconclusive: 35.5 µM [inhibitor, single point]
Cc1ccc(-c2nc(-c3cc4c([nH]c3=O)CC(C)(C)CC4=O)sc2C)cc1 | inconclusive: 35.5 µM [inhibitor, single point]
CCc1ccc(NCc2cc3ccc(OC)cc3n(CC(=O)Nc3ccc(F)cc3F)c2=O)cc1 | inactive
C[n+]1ccc(/C=C/c2c[nH]c3ccc(F)cc23)cc1 | active: 10 µM
O=C1/C(=C\c2ccc(-c3ccccc3[N+](=O)[O-])o2)C(c2ccccc2)=NN1c1ccccc1 | inactive
Cc1ccc(NC(=S)NNS(=O)(=O)c2ccc3ccccc3c2)cc1Cl | inactive
O=C(CSc1nnc(-c2ccncc2)n1-c1ccccc1)Nc1ccc(Br)cc1 | inactive
O=C(Nc1ccc(S(=O)(=O)Nc2cnc3ccccc3n2)cc1)c1ccc(F)cc1 | inconclusive: 6.31 µM [inhibitor, single point]
COc1ccc2c(c1)OC[C@H]1[C@H]2N2C(=O)CN(Cc3ccc(C)cc3)C(=O)[C@@]2(C)[C@H]1c1ccccc1 | inactive
CN(C(=S)Nc1ccc(Oc2ccccc2)cc1)C1CCCCC1 | inconclusive: 35.5 µM [inhibitor, single point]
CCOC(=O)NC(=O)CSc1nc(C)cc(C(F)(F)F)c1C#N | inconclusive: 22.4 µM [inhibitor, single point]
O=C(O)Cn1cc(/C=C/[N+](=O)[O-])c2ccccc21 | inactive
COc1ccc(CN2CCN(c3cc(C)nc4c5c(C)cc(C)nc5nn34)CC2)cc1F | inconclusive: 35.5 µM [inhibitor, single point]
COc1ccc(N/C=C\C(=O)c2ccc(C)cc2)cc1OC | inconclusive: 35.5 µM [inhibitor, single point]
Cc1ccc(NC(=O)CSCC(=O)OC(C)C(=O)Nc2ccc(S(N)(=O)=O)cc2)c(C)c1 (stereo not drawn) | inconclusive: 22.4 µM [inhibitor, single point]
O=C(Cn1cc(S(=O)(=O)N2CCN(c3ccccc3F)CC2)c2ccccc2c1=O)NCCCN1CCCCCC1 | inconclusive: 35.5 µM [inhibitor, single point]
CC(C(=O)Nc1ccccc1)N(C)Cc1cccs1 (stereo not drawn) | inconclusive: 35.5 µM [inhibitor, single point]
